Experimental data from PMC11949031.
Results are given in words; binding and its absence hold for the method and conditions named. In cells and extracts the contact can be indirect. Some binding calls cover weakened binding; strength is not graded here. Sequences can lack the tags named with a protein.

Sequences of proteins named here, by UniProt entry; tags and fusion partners are left off.
UniProt P35579: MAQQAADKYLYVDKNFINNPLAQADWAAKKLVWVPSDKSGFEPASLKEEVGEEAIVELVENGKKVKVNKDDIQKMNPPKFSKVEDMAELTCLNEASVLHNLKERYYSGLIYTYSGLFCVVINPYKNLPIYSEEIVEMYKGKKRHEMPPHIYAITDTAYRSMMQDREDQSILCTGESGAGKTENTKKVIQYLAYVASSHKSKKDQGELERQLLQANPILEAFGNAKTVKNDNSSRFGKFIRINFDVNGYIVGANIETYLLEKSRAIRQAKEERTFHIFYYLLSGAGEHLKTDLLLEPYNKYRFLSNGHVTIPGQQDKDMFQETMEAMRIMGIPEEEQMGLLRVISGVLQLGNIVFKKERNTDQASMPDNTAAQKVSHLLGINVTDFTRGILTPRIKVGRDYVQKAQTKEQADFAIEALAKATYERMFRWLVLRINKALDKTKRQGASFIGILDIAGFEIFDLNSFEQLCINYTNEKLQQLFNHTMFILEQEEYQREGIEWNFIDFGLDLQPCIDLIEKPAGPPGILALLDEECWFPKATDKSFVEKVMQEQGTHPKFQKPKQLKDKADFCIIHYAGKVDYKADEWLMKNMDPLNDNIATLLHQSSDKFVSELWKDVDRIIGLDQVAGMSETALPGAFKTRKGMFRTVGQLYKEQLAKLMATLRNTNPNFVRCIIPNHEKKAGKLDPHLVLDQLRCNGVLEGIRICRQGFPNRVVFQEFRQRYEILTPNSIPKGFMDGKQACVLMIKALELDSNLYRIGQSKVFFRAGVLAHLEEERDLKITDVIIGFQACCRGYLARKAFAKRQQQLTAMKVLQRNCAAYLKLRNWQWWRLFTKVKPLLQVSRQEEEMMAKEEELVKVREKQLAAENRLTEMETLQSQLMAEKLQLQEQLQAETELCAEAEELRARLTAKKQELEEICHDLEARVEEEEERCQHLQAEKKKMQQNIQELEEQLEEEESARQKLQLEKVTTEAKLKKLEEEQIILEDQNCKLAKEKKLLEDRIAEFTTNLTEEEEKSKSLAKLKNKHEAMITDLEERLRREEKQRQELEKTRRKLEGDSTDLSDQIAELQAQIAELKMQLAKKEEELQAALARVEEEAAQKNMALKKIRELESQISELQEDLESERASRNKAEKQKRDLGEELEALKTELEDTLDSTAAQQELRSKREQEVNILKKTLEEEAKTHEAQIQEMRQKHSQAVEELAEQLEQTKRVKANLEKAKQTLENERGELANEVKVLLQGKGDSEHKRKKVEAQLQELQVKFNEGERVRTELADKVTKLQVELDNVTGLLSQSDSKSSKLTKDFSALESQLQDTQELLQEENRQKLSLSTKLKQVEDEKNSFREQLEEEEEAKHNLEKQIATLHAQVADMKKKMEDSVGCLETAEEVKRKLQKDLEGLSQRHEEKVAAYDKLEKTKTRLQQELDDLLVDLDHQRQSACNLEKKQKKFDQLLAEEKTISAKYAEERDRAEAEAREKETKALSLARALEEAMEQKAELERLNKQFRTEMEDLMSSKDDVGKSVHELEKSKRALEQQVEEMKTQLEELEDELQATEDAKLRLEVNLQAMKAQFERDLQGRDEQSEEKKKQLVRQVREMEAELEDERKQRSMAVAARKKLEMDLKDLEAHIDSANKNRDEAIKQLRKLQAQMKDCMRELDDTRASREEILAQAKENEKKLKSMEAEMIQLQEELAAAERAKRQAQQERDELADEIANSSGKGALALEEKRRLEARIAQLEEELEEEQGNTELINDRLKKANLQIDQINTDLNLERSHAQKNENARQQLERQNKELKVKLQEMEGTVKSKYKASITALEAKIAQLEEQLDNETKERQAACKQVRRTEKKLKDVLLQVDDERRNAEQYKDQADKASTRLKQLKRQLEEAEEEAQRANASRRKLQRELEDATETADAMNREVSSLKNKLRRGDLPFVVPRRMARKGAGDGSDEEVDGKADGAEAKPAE
UniProt P35580: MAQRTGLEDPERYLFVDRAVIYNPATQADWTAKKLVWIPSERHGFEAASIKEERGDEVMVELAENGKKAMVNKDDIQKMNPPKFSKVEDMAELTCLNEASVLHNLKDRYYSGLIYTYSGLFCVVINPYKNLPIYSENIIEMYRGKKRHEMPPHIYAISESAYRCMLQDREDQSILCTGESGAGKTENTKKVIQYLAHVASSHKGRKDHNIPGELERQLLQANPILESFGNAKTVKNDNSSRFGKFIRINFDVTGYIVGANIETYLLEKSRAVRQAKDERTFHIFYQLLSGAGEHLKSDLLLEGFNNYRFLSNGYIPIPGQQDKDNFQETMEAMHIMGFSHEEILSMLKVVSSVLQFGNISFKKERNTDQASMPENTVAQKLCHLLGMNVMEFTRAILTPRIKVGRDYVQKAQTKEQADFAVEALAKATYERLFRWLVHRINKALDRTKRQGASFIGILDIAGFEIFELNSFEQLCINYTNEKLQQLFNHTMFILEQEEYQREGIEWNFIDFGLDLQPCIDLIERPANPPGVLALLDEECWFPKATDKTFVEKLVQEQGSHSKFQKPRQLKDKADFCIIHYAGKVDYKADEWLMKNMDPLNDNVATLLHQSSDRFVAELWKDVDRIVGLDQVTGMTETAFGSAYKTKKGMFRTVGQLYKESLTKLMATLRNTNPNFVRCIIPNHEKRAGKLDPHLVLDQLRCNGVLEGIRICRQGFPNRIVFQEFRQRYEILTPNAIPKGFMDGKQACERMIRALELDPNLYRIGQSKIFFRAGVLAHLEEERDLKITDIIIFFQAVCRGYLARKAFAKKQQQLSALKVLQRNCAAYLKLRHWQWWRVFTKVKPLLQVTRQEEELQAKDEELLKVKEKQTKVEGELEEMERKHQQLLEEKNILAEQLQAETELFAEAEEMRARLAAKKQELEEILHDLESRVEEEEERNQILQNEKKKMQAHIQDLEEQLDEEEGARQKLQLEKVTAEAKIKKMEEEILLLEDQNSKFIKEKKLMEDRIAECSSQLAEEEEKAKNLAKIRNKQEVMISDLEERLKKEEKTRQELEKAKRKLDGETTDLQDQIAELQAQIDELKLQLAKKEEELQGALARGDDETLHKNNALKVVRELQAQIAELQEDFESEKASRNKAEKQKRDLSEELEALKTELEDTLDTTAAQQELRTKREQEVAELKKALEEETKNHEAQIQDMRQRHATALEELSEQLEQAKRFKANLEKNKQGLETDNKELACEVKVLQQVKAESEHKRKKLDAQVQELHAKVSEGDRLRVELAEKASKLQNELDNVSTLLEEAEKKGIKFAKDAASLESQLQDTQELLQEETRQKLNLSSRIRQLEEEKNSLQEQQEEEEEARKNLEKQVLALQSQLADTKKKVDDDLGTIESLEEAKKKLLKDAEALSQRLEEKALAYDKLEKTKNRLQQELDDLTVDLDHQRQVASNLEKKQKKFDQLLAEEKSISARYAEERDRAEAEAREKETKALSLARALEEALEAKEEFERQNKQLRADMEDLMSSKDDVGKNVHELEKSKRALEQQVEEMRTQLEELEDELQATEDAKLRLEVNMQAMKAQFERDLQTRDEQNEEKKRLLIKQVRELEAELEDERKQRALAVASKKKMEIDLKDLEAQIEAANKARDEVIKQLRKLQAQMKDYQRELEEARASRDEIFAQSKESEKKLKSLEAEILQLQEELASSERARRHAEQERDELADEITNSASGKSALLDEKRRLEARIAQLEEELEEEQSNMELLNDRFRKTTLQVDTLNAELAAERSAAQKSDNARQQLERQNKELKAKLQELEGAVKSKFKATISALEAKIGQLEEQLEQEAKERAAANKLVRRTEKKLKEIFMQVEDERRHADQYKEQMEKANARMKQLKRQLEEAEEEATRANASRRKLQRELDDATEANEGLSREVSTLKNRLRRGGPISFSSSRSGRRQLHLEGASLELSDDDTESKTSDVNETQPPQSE

T1: HA-tagged UNC45A p.Leu237Pro mutant (human) (UniProt Q9H3U1)
T1 sequence: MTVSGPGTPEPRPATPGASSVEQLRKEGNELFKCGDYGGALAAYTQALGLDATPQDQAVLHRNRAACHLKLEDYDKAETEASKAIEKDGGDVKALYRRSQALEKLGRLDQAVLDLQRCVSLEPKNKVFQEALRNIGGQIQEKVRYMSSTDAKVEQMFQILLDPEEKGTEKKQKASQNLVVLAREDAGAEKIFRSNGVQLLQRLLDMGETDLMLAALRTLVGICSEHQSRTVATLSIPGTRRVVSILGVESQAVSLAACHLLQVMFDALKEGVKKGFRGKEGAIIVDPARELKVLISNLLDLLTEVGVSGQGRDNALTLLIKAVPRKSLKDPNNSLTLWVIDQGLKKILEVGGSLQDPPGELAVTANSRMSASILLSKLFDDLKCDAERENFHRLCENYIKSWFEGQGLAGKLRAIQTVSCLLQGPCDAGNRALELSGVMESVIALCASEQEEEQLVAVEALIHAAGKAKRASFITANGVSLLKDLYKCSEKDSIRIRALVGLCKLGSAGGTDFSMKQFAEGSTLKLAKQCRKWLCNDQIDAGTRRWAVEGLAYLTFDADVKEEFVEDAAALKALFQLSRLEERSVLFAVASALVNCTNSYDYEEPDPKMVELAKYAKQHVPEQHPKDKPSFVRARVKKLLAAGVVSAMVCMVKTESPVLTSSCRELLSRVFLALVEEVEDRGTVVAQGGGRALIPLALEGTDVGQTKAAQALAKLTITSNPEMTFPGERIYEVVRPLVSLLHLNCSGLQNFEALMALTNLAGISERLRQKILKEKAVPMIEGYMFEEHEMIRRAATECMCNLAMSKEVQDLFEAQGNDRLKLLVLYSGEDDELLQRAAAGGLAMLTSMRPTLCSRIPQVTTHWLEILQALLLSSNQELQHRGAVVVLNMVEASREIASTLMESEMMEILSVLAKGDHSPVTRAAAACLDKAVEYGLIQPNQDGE

T2: His-tagged UNC45A wild-type (human) (UniProt Q9H3U1)
T2 sequence: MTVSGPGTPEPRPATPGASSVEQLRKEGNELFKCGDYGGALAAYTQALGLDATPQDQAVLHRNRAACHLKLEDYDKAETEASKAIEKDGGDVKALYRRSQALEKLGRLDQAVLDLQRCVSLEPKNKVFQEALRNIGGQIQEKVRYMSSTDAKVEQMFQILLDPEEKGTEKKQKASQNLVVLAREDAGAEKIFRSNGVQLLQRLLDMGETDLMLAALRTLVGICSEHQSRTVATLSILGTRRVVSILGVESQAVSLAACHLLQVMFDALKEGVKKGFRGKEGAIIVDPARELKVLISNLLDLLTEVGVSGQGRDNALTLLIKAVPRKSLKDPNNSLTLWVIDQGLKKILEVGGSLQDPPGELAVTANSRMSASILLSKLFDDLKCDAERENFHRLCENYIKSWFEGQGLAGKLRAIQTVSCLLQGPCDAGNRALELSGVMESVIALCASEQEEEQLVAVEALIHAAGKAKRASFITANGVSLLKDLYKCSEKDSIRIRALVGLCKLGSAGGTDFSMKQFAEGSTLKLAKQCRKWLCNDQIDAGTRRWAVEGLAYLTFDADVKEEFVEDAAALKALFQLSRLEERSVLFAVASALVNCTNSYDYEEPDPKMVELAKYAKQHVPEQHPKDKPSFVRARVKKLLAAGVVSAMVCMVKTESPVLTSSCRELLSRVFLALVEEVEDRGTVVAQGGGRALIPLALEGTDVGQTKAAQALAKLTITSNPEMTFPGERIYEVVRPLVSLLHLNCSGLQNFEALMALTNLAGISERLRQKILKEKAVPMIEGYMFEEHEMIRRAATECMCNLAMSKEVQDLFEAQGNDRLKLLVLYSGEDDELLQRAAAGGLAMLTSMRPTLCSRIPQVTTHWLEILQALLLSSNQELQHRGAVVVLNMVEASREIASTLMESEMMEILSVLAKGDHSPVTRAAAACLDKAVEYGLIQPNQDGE

T3: His-tagged UNC45A p.Leu237Pro mutant (human) (UniProt Q9H3U1)
T3 sequence: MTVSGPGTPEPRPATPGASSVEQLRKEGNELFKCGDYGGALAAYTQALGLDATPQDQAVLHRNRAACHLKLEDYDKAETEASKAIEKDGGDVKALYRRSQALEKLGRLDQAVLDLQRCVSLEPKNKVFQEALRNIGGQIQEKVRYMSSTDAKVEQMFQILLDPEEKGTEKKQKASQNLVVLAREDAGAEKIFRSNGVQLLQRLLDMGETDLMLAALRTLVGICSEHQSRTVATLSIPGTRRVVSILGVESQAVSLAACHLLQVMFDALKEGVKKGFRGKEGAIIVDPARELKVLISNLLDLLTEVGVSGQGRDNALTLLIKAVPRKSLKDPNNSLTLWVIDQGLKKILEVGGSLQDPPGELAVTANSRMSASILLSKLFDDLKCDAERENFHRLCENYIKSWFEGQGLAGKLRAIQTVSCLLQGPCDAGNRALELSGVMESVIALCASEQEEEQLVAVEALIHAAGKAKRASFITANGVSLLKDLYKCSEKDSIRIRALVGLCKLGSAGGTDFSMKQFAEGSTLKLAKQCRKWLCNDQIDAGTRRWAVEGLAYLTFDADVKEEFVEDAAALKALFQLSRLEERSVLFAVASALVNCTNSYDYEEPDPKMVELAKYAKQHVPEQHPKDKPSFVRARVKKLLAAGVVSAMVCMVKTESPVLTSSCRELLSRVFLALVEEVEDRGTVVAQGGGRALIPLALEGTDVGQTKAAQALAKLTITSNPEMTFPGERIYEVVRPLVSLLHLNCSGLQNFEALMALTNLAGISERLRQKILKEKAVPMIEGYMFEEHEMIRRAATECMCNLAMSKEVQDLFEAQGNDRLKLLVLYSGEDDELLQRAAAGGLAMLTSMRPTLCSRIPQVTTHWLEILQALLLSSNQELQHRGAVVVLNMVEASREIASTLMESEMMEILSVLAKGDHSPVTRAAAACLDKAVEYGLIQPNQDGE


Tests used:
[1] = biological target: T1, HA-tagged UNC45A p.Leu237Pro mutant (human); test: co-IP; anti-HA antibody and Protein A-Sepharose from lysates of transiently transfected U2OS UNC45A-KO cells; EDTA-free EB4 lysis buffer (40 mM Tris-HCl pH 8.0, 100 mM NaCl, 0.5% NP-40), 4°C; immunoblot for HA, NMIIA, NMIIB
[2] = biological target: T2, His-tagged UNC45A wild-type (human); test: pull-down; oligomerization assay: His- and HA-tagged UNC45A cotransfected in U2OS UNC45A-KO cells; His-tagged bait held on Ni-NTA Agarose, 17.5 mM imidazole, 4°C; washes with EDTA-free EB4 buffer with 25 mM imidazole and then 400 mM NaCl; immunoblot for HA
[3] = biological target: T3, His-tagged UNC45A p.Leu237Pro mutant (human); test: as above

| Molecule | binding [1] | binding [2] | binding [3] |
| --- | --- | --- | --- |
| HA-tagged UNC45A wild-type (Unc-45 myosin chaperone A) (protein, UniProt Q9H3U1-1 1-944) MTVSGPGTPEPRPATPGASSVEQLRKEGNELFKCGDYGGALAAYTQALGLDATPQDQAVLHRNRAACHLKLEDYDKAETEASKAIEKDGGDVKALYRRSQALEKLGRLDQAVLDLQRCVSLEPKNKVFQEALRNIGGQIQEKVRYMSSTDAKVEQMFQILLDPEEKGTEKKQKASQNLVVLAREDAGAEKIFRSNGVQLLQRLLDMGETDLMLAALRTLVGICSEHQSRTVATLSILGTRRVVSILGVESQAVSLAACHLLQVMFDALKEGVKKGFRGKEGAIIVDPARELKVLISNLLDLLTEVGVSGQGRDNALTLLIKAVPRKSLKDPNNSLTLWVIDQGLKKILEVGGSLQDPPGELAVTANSRMSASILLSKLFDDLKCDAERENFHRLCENYIKSWFEGQGLAGKLRAIQTVSCLLQGPCDAGNRALELSGVMESVIALCASEQEEEQLVAVEALIHAAGKAKRASFITANGVSLLKDLYKCSEKDSIRIRALVGLCKLGSAGGTDFSMKQFAEGSTLKLAKQCRKWLCNDQIDAGTRRWAVEGLAYLTFDADVKEEFVEDAAALKALFQLSRLEERSVLFAVASALVNCTNSYDYEEPDPKMVELAKYAKQHVPEQHPKDKPSFVRARVKKLLAAGVVSAMVCMVKTESPVLTSSCRELLSRVFLALVEEVEDRGTVVAQGGGRALIPLALEGTDVGQTKAAQALAKLTITSNPEMTFPGERIYEVVRPLVSLLHLNCSGLQNFEALMALTNLAGISERLRQKILKEKAVPMIEGYMFEEHEMIRRAATECMCNLAMSKEVQDLFEAQGNDRLKLLVLYSGEDDELLQRAAAGGLAMLTSMRPTLCSRIPQVTTHWLEILQALLLSSNQELQHRGAVVVLNMVEASREIASTLMESEMMEILSVLAKGDHSPVTRAAAACLDKAVEYGLIQPNQDGE |  | binds |  |
| HA-tagged UNC45A p.Leu237Pro mutant (protein, UniProt Q9H3U1-1 1-944) MTVSGPGTPEPRPATPGASSVEQLRKEGNELFKCGDYGGALAAYTQALGLDATPQDQAVLHRNRAACHLKLEDYDKAETEASKAIEKDGGDVKALYRRSQALEKLGRLDQAVLDLQRCVSLEPKNKVFQEALRNIGGQIQEKVRYMSSTDAKVEQMFQILLDPEEKGTEKKQKASQNLVVLAREDAGAEKIFRSNGVQLLQRLLDMGETDLMLAALRTLVGICSEHQSRTVATLSIPGTRRVVSILGVESQAVSLAACHLLQVMFDALKEGVKKGFRGKEGAIIVDPARELKVLISNLLDLLTEVGVSGQGRDNALTLLIKAVPRKSLKDPNNSLTLWVIDQGLKKILEVGGSLQDPPGELAVTANSRMSASILLSKLFDDLKCDAERENFHRLCENYIKSWFEGQGLAGKLRAIQTVSCLLQGPCDAGNRALELSGVMESVIALCASEQEEEQLVAVEALIHAAGKAKRASFITANGVSLLKDLYKCSEKDSIRIRALVGLCKLGSAGGTDFSMKQFAEGSTLKLAKQCRKWLCNDQIDAGTRRWAVEGLAYLTFDADVKEEFVEDAAALKALFQLSRLEERSVLFAVASALVNCTNSYDYEEPDPKMVELAKYAKQHVPEQHPKDKPSFVRARVKKLLAAGVVSAMVCMVKTESPVLTSSCRELLSRVFLALVEEVEDRGTVVAQGGGRALIPLALEGTDVGQTKAAQALAKLTITSNPEMTFPGERIYEVVRPLVSLLHLNCSGLQNFEALMALTNLAGISERLRQKILKEKAVPMIEGYMFEEHEMIRRAATECMCNLAMSKEVQDLFEAQGNDRLKLLVLYSGEDDELLQRAAAGGLAMLTSMRPTLCSRIPQVTTHWLEILQALLLSSNQELQHRGAVVVLNMVEASREIASTLMESEMMEILSVLAKGDHSPVTRAAAACLDKAVEYGLIQPNQDGE |  | binds | binds |

The remaining lines, values ahead:

| binding [1] | binding [2] | binding [3] | Molecule |
| --- | --- | --- | --- |
| binds |  |  | NMIIA (from UniProt P35579 1-1960) |
| binds |  |  | NMIIB (from UniProt P35580 1-1976) |
